In patent publication US20050053985A1:
No constants are given. Whether binding was seen depends on the method and setting. In cells and extracts the contact can be indirect. These calls come from enrichment with a bait or labelling near it, and not all partners need be listed. Sequences can lack the tags named with a protein.

Biological target: T1, HsClp1 (human) (UniProt Q92989)
T1 sequence (looked up): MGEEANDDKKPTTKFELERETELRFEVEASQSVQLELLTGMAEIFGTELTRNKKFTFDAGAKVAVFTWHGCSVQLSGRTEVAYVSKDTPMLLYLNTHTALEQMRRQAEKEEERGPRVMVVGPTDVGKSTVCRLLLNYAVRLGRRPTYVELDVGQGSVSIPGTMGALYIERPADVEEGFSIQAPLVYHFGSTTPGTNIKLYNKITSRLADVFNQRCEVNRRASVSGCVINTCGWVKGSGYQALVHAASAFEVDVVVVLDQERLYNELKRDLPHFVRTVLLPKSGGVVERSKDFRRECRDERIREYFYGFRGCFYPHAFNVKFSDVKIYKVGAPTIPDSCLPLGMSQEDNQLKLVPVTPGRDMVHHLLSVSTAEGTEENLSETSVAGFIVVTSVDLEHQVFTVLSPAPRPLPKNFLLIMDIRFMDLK
Test: co-purification (anti-Flag then Ni beads), SDS-PAGE, silver staining, mass spectrometry

B1: His-Flag-HsSen54 (protein, human, UniProt Q7Z6J9 1-526, looked up, not shown: small tags and cut ends)
chain: MEPEPEPAAVEVPAGRVLSARELFAARSRSQKLPQRSHGPKDFLPDGSAAQAERLRRCREELWQLLAEQRVERLGSLVAAEWRPEEGFVELKSPAGKFWQTMGFSEQGRQRLHPEEALYLLECGSIHLFHQDLPLSIQEAYQLLLTDHTVTFLQYQVFSHLKRLGYVVRRFQPSSVLSPYERQLNLDASVQHLEDGDGKRKRSSSSPRSINKKAKALDNSLQPKSLAASSPPPCSQPSQCPEEKPQESSPMKGPGGPFQLLGSLGPSPGPAREGVGCSWESGRAENGVTGAGKRRWNFEQISFPNMASDSRHTLLRAPAPELLPANVAGRETDAESWCQKLNQRKEKLSRREREHHAEAAQFQEDVNADPEVQRCSSWREYKELLQRRQVQRSQRRAPHLWGQPVTPLLSPGQASSPAVVLQHISVLQTTHLPDGGARLLEKSGGLEIIFDVYQADAVATFRKNNPGKPYARMCISGFDEPVPDLCSLKRLSYQSGDVPLIFALVDHGDISFYSFRDFTLPQDVGH
**Q.** How did the binding turn out when B1 was run?
**A.** Its binding is “binds”.
